Laboratory results: the supplement of paper PMC7666118
This is one part of the list.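 The calls were made as follows: active = dose-dependent thermal stabilisation significant by F-test of dose-response against flat model at 10% FDR; inactive = not significant.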

The chains behind the UniProt entries cited, without tags or fusion partners. Where a name states a change or a piece, a line headed by the entry shows the natural chain unless it says otherwise.
UniProt Q12874: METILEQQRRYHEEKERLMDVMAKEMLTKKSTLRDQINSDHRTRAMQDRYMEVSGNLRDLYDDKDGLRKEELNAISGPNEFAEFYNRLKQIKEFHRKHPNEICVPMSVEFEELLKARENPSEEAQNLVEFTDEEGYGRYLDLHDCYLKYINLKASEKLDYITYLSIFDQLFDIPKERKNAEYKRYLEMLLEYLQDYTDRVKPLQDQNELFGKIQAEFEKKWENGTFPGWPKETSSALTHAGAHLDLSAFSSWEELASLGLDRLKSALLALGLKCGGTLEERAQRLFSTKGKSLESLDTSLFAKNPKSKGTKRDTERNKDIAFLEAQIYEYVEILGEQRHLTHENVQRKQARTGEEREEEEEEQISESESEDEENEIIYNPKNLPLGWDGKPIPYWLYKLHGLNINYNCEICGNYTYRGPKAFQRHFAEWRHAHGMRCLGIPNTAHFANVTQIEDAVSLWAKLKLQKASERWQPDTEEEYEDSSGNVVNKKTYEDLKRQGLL
UniProt O15027: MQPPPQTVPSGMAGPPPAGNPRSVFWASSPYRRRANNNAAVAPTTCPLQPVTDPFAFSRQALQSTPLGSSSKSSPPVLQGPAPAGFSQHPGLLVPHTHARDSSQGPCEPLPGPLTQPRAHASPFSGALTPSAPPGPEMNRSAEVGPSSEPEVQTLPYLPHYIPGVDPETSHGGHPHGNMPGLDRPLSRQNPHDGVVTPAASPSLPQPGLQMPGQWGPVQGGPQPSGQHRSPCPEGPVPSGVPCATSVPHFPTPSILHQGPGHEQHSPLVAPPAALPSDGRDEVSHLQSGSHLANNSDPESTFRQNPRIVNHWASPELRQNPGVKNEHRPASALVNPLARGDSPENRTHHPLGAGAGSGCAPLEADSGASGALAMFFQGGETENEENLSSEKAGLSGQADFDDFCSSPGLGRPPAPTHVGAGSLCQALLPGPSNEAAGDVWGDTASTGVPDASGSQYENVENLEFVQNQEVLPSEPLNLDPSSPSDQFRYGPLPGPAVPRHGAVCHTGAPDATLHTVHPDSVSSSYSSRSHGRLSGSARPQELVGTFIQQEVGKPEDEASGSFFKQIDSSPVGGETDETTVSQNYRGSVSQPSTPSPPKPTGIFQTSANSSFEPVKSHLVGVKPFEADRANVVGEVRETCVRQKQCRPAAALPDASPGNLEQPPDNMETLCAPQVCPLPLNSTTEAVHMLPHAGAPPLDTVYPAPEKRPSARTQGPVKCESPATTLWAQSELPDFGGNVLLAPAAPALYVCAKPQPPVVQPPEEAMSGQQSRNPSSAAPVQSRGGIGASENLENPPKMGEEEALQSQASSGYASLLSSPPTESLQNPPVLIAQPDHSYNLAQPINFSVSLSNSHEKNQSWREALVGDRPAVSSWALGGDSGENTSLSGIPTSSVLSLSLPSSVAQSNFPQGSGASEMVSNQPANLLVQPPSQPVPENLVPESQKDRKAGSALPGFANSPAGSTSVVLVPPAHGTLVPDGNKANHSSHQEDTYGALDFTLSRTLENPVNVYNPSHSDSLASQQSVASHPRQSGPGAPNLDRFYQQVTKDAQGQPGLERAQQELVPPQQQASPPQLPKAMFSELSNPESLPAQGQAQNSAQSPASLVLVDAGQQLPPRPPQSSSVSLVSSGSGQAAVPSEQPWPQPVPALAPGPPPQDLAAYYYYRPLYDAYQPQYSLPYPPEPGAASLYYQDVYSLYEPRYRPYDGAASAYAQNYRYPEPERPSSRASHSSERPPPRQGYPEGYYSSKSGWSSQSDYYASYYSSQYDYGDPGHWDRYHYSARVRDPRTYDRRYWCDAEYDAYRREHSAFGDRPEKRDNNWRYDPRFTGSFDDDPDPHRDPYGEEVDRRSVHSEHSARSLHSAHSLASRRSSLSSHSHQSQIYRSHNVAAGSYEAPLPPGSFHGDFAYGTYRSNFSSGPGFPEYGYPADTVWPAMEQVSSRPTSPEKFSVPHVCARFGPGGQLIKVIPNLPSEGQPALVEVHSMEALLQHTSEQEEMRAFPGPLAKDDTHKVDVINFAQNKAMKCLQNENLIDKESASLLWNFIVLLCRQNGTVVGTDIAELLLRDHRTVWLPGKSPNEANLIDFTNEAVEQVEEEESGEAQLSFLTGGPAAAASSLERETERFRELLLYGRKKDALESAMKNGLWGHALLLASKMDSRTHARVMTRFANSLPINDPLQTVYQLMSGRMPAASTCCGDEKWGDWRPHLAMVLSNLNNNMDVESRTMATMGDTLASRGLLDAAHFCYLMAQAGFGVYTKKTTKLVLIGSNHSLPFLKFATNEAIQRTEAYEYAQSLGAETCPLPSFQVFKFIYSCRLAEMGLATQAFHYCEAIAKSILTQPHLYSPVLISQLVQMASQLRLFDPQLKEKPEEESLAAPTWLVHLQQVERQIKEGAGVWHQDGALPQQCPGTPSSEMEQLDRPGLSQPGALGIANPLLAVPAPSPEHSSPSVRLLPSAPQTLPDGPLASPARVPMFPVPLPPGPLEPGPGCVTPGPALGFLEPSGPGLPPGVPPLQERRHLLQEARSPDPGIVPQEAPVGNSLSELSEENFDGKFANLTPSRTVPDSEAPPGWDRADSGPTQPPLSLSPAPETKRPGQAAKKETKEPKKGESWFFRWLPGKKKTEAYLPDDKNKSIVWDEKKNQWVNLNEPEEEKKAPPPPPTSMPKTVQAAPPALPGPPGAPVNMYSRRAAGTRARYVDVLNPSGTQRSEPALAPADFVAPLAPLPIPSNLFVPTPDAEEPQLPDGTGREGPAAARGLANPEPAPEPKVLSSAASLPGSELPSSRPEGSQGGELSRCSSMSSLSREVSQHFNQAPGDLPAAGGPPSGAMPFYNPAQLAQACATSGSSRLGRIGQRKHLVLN
UniProt P52758: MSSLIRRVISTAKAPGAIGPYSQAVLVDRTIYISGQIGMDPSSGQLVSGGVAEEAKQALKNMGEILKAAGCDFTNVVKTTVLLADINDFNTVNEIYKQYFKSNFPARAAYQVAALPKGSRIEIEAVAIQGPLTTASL
UniProt Q96BH1: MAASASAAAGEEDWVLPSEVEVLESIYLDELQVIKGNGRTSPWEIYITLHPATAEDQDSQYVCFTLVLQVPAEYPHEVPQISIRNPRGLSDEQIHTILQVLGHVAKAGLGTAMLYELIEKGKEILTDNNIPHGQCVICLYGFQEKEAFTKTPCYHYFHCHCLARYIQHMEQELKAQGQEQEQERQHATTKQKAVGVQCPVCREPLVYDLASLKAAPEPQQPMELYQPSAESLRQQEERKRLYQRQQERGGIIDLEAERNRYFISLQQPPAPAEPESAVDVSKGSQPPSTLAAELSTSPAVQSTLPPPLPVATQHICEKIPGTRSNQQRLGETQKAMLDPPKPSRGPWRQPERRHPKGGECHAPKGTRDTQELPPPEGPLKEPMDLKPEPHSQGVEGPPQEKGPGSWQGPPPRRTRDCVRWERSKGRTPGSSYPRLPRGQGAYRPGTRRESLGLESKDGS
UniProt Q9H7N4: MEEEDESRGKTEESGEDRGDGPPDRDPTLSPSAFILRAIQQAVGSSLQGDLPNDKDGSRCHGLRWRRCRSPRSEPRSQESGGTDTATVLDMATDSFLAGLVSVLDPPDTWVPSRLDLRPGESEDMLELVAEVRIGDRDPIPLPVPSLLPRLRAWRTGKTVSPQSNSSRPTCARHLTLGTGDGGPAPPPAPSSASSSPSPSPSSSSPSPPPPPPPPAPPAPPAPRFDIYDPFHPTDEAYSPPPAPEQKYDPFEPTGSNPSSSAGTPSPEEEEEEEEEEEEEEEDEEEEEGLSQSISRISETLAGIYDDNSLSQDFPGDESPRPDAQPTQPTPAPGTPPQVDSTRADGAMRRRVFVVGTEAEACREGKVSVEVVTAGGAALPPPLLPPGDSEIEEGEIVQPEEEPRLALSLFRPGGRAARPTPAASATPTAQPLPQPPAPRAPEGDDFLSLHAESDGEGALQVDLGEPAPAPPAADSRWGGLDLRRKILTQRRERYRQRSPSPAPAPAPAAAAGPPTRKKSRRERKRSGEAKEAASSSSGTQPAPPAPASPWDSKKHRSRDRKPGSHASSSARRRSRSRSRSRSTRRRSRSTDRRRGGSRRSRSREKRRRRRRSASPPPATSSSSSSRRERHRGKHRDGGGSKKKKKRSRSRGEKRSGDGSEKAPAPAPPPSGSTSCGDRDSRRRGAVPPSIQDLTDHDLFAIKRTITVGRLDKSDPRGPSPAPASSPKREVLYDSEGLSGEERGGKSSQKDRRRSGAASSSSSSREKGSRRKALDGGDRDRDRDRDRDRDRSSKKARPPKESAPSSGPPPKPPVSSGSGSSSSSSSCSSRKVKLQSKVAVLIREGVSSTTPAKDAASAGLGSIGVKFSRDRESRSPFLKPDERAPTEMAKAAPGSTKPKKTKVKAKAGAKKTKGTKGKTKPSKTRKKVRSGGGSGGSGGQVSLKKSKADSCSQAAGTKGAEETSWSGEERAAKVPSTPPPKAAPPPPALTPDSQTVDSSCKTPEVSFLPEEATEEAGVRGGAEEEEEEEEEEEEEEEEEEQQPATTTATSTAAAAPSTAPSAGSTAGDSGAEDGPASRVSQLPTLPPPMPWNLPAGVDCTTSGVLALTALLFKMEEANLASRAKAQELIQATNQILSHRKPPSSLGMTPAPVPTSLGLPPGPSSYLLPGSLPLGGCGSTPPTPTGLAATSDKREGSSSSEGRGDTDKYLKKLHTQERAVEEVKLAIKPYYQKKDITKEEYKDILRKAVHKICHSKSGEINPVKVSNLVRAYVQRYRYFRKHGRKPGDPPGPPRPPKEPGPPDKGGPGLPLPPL
UniProt Q6ZNA4: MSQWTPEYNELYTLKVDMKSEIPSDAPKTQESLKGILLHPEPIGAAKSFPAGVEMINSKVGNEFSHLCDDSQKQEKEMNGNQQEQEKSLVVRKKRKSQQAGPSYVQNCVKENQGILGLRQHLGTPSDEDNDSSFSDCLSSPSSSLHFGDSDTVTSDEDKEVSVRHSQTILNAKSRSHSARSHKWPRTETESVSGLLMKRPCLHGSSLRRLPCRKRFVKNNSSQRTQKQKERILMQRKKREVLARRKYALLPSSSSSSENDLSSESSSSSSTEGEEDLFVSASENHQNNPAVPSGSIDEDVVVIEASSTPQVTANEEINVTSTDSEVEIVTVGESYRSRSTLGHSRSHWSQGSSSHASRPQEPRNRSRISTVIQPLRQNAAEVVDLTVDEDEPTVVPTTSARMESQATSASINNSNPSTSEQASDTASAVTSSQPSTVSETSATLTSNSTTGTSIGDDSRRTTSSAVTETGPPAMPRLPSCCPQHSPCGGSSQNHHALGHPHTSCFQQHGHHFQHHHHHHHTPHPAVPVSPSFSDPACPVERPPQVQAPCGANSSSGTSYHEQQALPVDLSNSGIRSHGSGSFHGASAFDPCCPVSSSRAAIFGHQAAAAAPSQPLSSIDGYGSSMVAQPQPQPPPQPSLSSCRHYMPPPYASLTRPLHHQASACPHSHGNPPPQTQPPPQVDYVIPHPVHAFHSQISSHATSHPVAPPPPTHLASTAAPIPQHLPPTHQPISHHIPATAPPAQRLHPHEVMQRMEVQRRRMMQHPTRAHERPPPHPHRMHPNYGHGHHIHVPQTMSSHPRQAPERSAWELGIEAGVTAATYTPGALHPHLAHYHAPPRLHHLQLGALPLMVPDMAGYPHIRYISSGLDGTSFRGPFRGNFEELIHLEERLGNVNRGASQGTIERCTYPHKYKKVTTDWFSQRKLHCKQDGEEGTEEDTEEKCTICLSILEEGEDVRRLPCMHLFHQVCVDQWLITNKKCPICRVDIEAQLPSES
UniProt P27694, whole entry: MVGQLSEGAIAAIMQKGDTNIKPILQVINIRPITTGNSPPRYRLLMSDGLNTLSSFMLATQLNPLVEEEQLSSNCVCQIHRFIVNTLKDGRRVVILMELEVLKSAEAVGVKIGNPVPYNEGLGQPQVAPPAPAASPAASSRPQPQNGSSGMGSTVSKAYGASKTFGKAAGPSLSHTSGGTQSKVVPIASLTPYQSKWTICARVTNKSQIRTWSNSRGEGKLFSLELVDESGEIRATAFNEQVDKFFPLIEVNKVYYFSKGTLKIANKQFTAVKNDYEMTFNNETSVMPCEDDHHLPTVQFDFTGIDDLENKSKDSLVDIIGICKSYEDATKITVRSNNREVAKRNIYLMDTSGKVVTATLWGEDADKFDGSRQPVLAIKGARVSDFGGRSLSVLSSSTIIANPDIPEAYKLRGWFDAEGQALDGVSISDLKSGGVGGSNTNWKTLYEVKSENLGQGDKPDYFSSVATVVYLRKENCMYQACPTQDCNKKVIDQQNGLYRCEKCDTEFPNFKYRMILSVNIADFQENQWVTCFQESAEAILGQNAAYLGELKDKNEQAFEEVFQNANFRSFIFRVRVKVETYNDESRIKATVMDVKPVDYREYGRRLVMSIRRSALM
UniProt Q8N5L8: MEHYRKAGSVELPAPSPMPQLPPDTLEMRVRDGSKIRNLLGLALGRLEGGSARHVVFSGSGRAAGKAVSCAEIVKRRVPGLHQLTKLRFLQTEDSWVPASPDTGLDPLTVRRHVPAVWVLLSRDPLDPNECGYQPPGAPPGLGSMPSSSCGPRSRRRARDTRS

compound: Nc1nc2c(ncn2[C@@H]2O[C@H](COP(=O)(O)OP(=O)(O)OP(=O)(O)O)[C@@H](O)[C@H]2O)c(=O)[nH]1; experiment: dose-dependent thermal stabilisation call (2D-TPP, DLPTP, 10% FDR) (binary (1 = stabilised)); higher = stabilised by the compound; conditions: system: Jurkat gel-filtered lysate; concentration range 1-500 µM

Row | Target | dose-dependent thermal stabilisation call
1 | SDCBP (UniProt O00560) | inactive: 0
2 | SFSWAP (UniProt Q12872) | inactive: 0
3 | RNF169 (UniProt Q8NCN4) | inactive: 0
4 | RPGR (UniProt Q92834) | inactive: 0
5 | SETX (UniProt Q7Z333) | inactive: 0
6 | SF3A3 (UniProt Q12874) | inactive: 0
7 | SETDB1 (UniProt Q15047) | inactive: 0
8 | SFPQ (UniProt P23246) | inactive: 0
9 | SGTB (UniProt Q96EQ0) | inactive: 0
10 | RFC4 (UniProt P35249) | active: 1
11 | SEC16A (UniProt O15027) | inactive: 0
12 | RFTN1 (UniProt Q14699) | inactive: 0
13 | RIDA (UniProt P52758) | inactive: 0
14 | RPL29 (UniProt P47914) | inactive: 0
15 | RNF25 (UniProt Q96BH1) | inactive: 0
16 | SCAF1 (UniProt Q9H7N4) | inactive: 0
17 | SELENOF (UniProt O60613) | inactive: 0
18 | RPP40 (UniProt O75818) | inactive: 0

Taken from above.
RFTN1 (UniProt Q14699) – dose-dependent thermal stabilisation call: inactive: 0
SELENOF (UniProt O60613) – dose-dependent thermal stabilisation call: inactive: 0

Next part:

Row | Target | dose-dependent thermal stabilisation call
19 | RPAP2 (UniProt Q8IXW5) | inactive: 0
20 | RRM2B (UniProt Q7LG56) | inactive: 0
21 | RIC8B (UniProt Q9NVN3) | inactive: 0
22 | SEC13 (UniProt P55735) | inactive: 0
23 | SF3A1 (UniProt Q15459) | inactive: 0
24 | RNF111 (UniProt Q6ZNA4) | inactive: 0
25 | RPS6 (UniProt P62753) | active: 1
26 | SH3BP5L (UniProt Q7L8J4) | inactive: 0
27 | RXRA (UniProt P19793) | active: 1
28 | SATB1 (UniProt Q01826) | inactive: 0
29 | RPA1 (UniProt P27694) | inactive: 0
30 | RPP25L (UniProt Q8N5L8) | inactive: 0
31 | SART3 (UniProt Q15020) | active: 1
32 | RDX (UniProt P35241) | inactive: 0
33 | RIOX2 (UniProt Q8IUF8) | inactive: 0
34 | REPIN1 (UniProt Q9BWE0) | inactive: 0
35 | SGO1 (UniProt Q5FBB7) | inactive: 0
36 | RPL34 (UniProt P49207) | inactive: 0
